The record followed here is doi:10.1101/2024.07.10.602886.

Protein sequences, listed by entry. Tags and fused reporters are not part of them. Lines headed by an entry give the natural chain unless they say otherwise; changes in a name come on top.
UniProt Q9H1Y0: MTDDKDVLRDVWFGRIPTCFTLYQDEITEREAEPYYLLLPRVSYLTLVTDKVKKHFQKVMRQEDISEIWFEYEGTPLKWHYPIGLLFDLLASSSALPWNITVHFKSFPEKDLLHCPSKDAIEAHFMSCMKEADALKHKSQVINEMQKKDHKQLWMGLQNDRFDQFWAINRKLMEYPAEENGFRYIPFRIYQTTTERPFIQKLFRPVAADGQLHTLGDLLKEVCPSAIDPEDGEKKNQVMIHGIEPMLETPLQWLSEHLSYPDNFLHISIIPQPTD

One assay addresses APEX2-ATG5 K130R (UniProt Q9H1Y0). The assay is described as follows: proximity labelling; APEX2 proximity biotinylation in FlpIn-HeLa APEX2-ATG5-WT or -K130R cells; 500 uM biotin-phenol with or without 2 mM LLOMe for 30 min, 1 mM H2O2 for 1 min; streptavidin beads; DIA LC-MS/MS.
The next assay addresses APEX2-ATG5 WT (UniProt Q9H1Y0). The description is as above.

Results are given in words; binding and its absence hold for the method and conditions named. Binding seen in cells or lysates may run through a third protein. A yes stands for co-enrichment or nearness to the bait. Other partners may have been found.

“VPS26A (endogenous) (from UniProt O75436 1-327)”: the binding entry in the assay with APEX2-ATG5 K130R and with APEX2-ATG5 WT was “binds” in each case.
